In the assay the target is voltage-dependent anion channel 1 (human (endogenous in PANC-1)), P21796. Kind of assay: co-IP; protein extracts from PANC-1 cells; Pierce crosslinking magnetic IP/Co-IP kit; cells treated with or without Pt@PCN-Cu. Conditions: remark: other sources report otherwise.

These results are taken from publication PMC12085017.

Results are given in words; binding and its absence hold for the method and conditions named. In cells and extracts the contact can be indirect. Some entries that bind do so weakly or less than the wild type.

B1: hexokinase 2, P52789 1-917 (protein)
chain: MIASHLLAYFFTELNHDQVQKVDQYLYHMRLSDETLLEISKRFRKEMEKGLGATTHPTAAVKMLPTFVRSTPDGTEHGEFLALDLGGTNFRVLWVKVTDNGLQKVEMENQIYAIPEDIMRGSGTQLFDHIAECLANFMDKLQIKDKKLPLGFTFSFPCHQTKLDESFLVSWTKGFKSSGVEGRDVVALIRKAIQRRGDFDIDIVAVVNDTVGTMMTCGYDDHNCEIGLIVGTGSNACYMEEMRHIDMVEGDEGRMCINMEWGAFGDDGSLNDIRTEFDQEIDMGSLNPGKQLFEKMISGMYMGELVRLILVKMAKEELLFGGKLSPELLNTGRFETKDISDIEGEKDGIRKAREVLMRLGLDPTQEDCVATHRICQIVSTRSASLCAATLAAVLQRIKENKGEERLRSTIGVDGSVYKKHPHFAKRLHKTVRRLVPGCDVRFLRSEDGSGKGAAMVTAVAYRLADQHRARQKTLEHLQLSHDQLLEVKRRMKVEMERGLSKETHASAPVKMLPTYVCATPDGTEKGDFLALDLGGTNFRVLLVRVRNGKWGGVEMHNKIYAIPQEVMHGTGDELFDHIVQCIADFLEYMGMKGVSLPLGFTFSFPCQQNSLDESILLKWTKGFKASGCEGEDVVTLLKEAIHRREEFDLDVVAVVNDTVGTMMTCGFEDPHCEVGLIVGTGSNACYMEEMRNVELVEGEEGRMCVNMEWGAFGDNGCLDDFRTEFDVAVDELSLNPGKQRFEKMISGMYLGEIVRNILIDFTKRGLLFRGRISERLKTRGIFETKFLSQIESDCLALLQVRAILQHLGLESTCDDSIIVKEVCTVVARRAAQLCGAGMAAVVDRIRENRGLDALKVTVGVDGTLYKLHPHFAKVMHETVKDLAPKCDVSFLQSEDGSGKGAALITAVACRIREAGQR
On to B1, for which the binding entry is “binds”.
